# Assay results: PMC7819943, “Rice protein-binding microarrays: a tool to detect cis-acting elements near promoter regions in rice”
# By UniProt entry, the sequences of proteins in these tests, tags left out.
# UniProt Q0JBA9, entry or part of it: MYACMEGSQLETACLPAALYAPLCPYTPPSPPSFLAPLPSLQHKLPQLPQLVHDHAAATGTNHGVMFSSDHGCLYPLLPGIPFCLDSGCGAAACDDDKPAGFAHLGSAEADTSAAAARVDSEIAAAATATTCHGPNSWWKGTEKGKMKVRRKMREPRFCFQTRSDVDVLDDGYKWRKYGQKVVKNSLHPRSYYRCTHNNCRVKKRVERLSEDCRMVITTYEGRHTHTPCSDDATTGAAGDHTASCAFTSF
# Some of the results follow.
# Molecular target: OsWRKY34 (Oryza sativa, UniProt Q0JBA9 1-250)
# Assay: protein-binding microarray (RPBM); PBS, 2% BSA, 51.3 ng/ul salmon testes DNA, 50 uM zinc acetate, 200 nM TF, 25 C, 1 h; high values mean tight binding
# Conditions: protein: recombinant; tags: N-terminal polyhistidine and DsRed monomer fusion (pET32a); label: CyDye5-dUTP incorporated in the synthesized complementary strand; 3' TTTTT single-stranded linker to array surface; dsDNA, one strand shown
# Summary of the method: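 The binding signal is fluorescence intensity per array feature (arbitrary units). Readings came from an Axon 4000B scanner after a washed, 2% BSA-blocked, double-stranded custom Agilent array had been incubated for 1 h at 25 °C with 200 nM protein and 50 µM zinc acetate. The protein was a Ni–NTA-purified transcription factor fused N-terminally to polyhistidine and DsRed, expressed in E. coli BL21-CodonPlus.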
row,Sequence,binding signal
1,CCCTTTCTTACCGCATGTACGTGCCCGGCTGCTTCCTATACGGAGTCACCTAGTGCAG,14600 fluorescence intensity (a.u.)
2,GCGCGATCATCTCCCACTCCCACCGTTGTTCCTCCTCAACCGGAGTCACCTAGTGCAG,9320 fluorescence intensity (a.u.)
3,CTTTCTTTTTCTACACCCTCATGCAACAAACTTTCTATTACGGAGTCACCTAGTGCAG,8260 fluorescence intensity (a.u.)
4,CATACTCTGATATACCTGAAGGACTTTCTACCGTCATTATCGGAGTCACCTAGTGCAG,9750 fluorescence intensity (a.u.)
5,GCCATTTTTCTTGGCGCCAAGCCCGGCTTTCCCGCGGCGCCGGAGTCACCTAGTGCAG,10300 fluorescence intensity (a.u.)
6,GGATTCTCTGTTTTTTTTTGGGTACTTCTGATTGATTCAACGGAGTCACCTAGTGCAG,9170 fluorescence intensity (a.u.)
7,ATCTACTCCACCTGGCATTCCTACATTTTTTTTCAATTGACGGAGTCACCTAGTGCAG,8680 fluorescence intensity (a.u.)
8,TTTGCAGGGGCTGGGCATGATCACTGTCTCGTCGGTTCTTCGGAGTCACCTAGTGCAG,12100 fluorescence intensity (a.u.)
9,GCACATTCTCACTGATATTATTGAATTTCCTACTCAGTACCGGAGTCACCTAGTGCAG,12600 fluorescence intensity (a.u.)
10,GATTGGGCGATTTCATCTTCTTCTTGGCCTTGAGGCGGTACGGAGTCACCTAGTGCAG,10000 fluorescence intensity (a.u.)
11,GATTTGTGCGGTTTTTATTATTCTTCTCGTTCAATTTCTCCGGAGTCACCTAGTGCAG,9170 fluorescence intensity (a.u.)
12,TATGTTTTCTGTCAACTGCTCGTCTTTTTCGTGGCAAGATCGGAGTCACCTAGTGCAG,11700 fluorescence intensity (a.u.)
13,ATTTCTAAATATTTGACGTCGTTGACTTTTTTAAACATGTCGGAGTCACCTAGTGCAG,26800 fluorescence intensity (a.u.)
14,CTCCGACCGCATGCTCTCCTCCCTGAACCTCGCACGTATACGGAGTCACCTAGTGCAG,10100 fluorescence intensity (a.u.)
15,CAGTAGAGGTGTGGTGGTGATATTGCAGGCGGCGACCATGCGGAGTCACCTAGTGCAG,8840 fluorescence intensity (a.u.)
16,CAGCCCGTTAAAATTAGGCCTTCCTCTATCTTCCTTTTTCCGGAGTCACCTAGTGCAG,8530 fluorescence intensity (a.u.)
17,CTTCGGTTTCGTAATTTTTCTCTCTTGTTCGTTCTCCATGCGGAGTCACCTAGTGCAG,8400 fluorescence intensity (a.u.)
18,CCATCTTCGCCGCCCGCGCCTCTCGCGCCGAACTAGCCTCCGGAGTCACCTAGTGCAG,13100 fluorescence intensity (a.u.)
19,CAATTCTCCATGCTCATCCCACCAAAATTCTCATATCTCTCGGAGTCACCTAGTGCAG,10600 fluorescence intensity (a.u.)
20,TGTGCTCTTCTTGCCGCCATCTTTTGACCTCGTTGCAATGCGGAGTCACCTAGTGCAG,8040 fluorescence intensity (a.u.)
21,GTGGTTTGAGGCGTCCGATTTTTTTTCGACCGCTCGAGCGCGGAGTCACCTAGTGCAG,10700 fluorescence intensity (a.u.)
22,AATTCACCATGTTGGAACTTGCACAGGTTTGTACACAATTCGGAGTCACCTAGTGCAG,8390 fluorescence intensity (a.u.)
23,AGAAAATACACGGTCAACTAACGGTCAACTGACGGGAGGGCGGAGTCACCTAGTGCAG,8790 fluorescence intensity (a.u.)
24,TCGCCTACACACGCCGTCGTCGTCTTCTTTCCTGGCAATGCGGAGTCACCTAGTGCAG,8870 fluorescence intensity (a.u.)
25,ACACCCCAACCCGGCAACGGCAACCCGACCCAACCTGCGCCGGAGTCACCTAGTGCAG,9230 fluorescence intensity (a.u.)
26,CGTGGAGAGGGGAGGGGAGGGAGAGGGAGACCGGGCGCATCGGAGTCACCTAGTGCAG,8560 fluorescence intensity (a.u.)
27,GCTGAATTCTCACTGCTGTTCTTCACCTCCTCATACCTCGCGGAGTCACCTAGTGCAG,8980 fluorescence intensity (a.u.)

row,Sequence,binding signal
1,CCTCTACGCGCGGCCAACGCCGCCGCCGCCGCCGCCGCTCCGGAGTCACCTAGTGCAG,8370 fluorescence intensity (a.u.)
2,ATGTTTGACCATTCGTCTTATTCAAAAAATTTACGTAATTCGGAGTCACCTAGTGCAG,8060 fluorescence intensity (a.u.)
3,CAGATCTGTAAAGTTAGCGTTCTCTATCTCTCTCTCTTTTCGGAGTCACCTAGTGCAG,11800 fluorescence intensity (a.u.)
4,TGTTCTCTTTTTTAATACTTCCTCTGTTCCATATTATATCCGGAGTCACCTAGTGCAG,9620 fluorescence intensity (a.u.)
5,TTTTCCAACTTACCTCCTTCATTTTCCACGCGCACATTTTCGGAGTCACCTAGTGCAG,9420 fluorescence intensity (a.u.)
6,TCGTTTACCACCTATCCAACGCAGGTCGCAATAAAAACCACGGAGTCACCTAGTGCAG,8300 fluorescence intensity (a.u.)
7,GCTCTTCCTATCCTACTGCCAACTCCCGCGATGACCGCGCCGGAGTCACCTAGTGCAG,8890 fluorescence intensity (a.u.)
8,ATTTGTTCCCACGACCTCTATTTTACTGAAATAACATGTTCGGAGTCACCTAGTGCAG,10000 fluorescence intensity (a.u.)
9,TCCTGTGGCCTATCCGGTCTCCTTGGCCTCCGCGAGGTTGCGGAGTCACCTAGTGCAG,10400 fluorescence intensity (a.u.)
10,GTGACCCAACATTCAGATTCATCTTTTTTTTTCACCTTCTCGGAGTCACCTAGTGCAG,11300 fluorescence intensity (a.u.)
11,ATGTTAGCCTCTTACCTTGCACGCAACTTGTTTGTCTACACGGAGTCACCTAGTGCAG,10900 fluorescence intensity (a.u.)
12,TACCCTTTTTCTGGTCATTTTGCCTCTGTATCAGTGGGGACGGAGTCACCTAGTGCAG,11200 fluorescence intensity (a.u.)
13,ATCGTATTACCGGAGTCAAAATGCACTTATTCCTCCTTCACGGAGTCACCTAGTGCAG,8920 fluorescence intensity (a.u.)
14,GATGATGATGATTTTGGTAGGAGATATGGATCGTGTTGGTCGGAGTCACCTAGTGCAG,11300 fluorescence intensity (a.u.)
15,ATCGTTAAGTCTGATCACCACTCCCTTTACAGCTCTTTACCGGAGTCACCTAGTGCAG,10800 fluorescence intensity (a.u.)
16,ACTATGTTTTCCTTTTTTTATTCTGAATTTTAATTAGCTTCGGAGTCACCTAGTGCAG,8400 fluorescence intensity (a.u.)
17,ATATTCACTTTTTACCGATGCATTCCACAAAAGATTCACTCGGAGTCACCTAGTGCAG,8590 fluorescence intensity (a.u.)
18,CCCATCAAGAATATCTTCCTACACGCAATGCATCTTATGTCGGAGTCACCTAGTGCAG,9880 fluorescence intensity (a.u.)
19,ACACTTTCTGTTCCAACTGTAAAAAGGCACACCACAAAAACGGAGTCACCTAGTGCAG,8810 fluorescence intensity (a.u.)
20,CGGTATCCTCTAATTATTTTAGAATCTCATGTCCCAAATTCGGAGTCACCTAGTGCAG,8190 fluorescence intensity (a.u.)
21,ACTTACCCTAGGCCCATCTCCTCCACAGCAAGCACTCTCACGGAGTCACCTAGTGCAG,10400 fluorescence intensity (a.u.)
22,CACACACAAACCATTGCAACTGCACTACACTGCAGCACACCGGAGTCACCTAGTGCAG,9060 fluorescence intensity (a.u.)
23,AATCTATGGTCCAAACTATTTCACTCCCTTTTTTCTCTCACGGAGTCACCTAGTGCAG,11000 fluorescence intensity (a.u.)
24,CCACTAGATATGCGCGCCTTTGCAAACTTACCACCCAATCCGGAGTCACCTAGTGCAG,9200 fluorescence intensity (a.u.)
25,TCGTCTGTTGCCACCCATTTCTTACCCACATGATTTTCTTCGGAGTCACCTAGTGCAG,8560 fluorescence intensity (a.u.)
26,ATCCCGGGCTGCCAAAGGAGCCCTTATATGATTCCCACGCCGGAGTCACCTAGTGCAG,8500 fluorescence intensity (a.u.)
27,GCATATGGGGATTCTGGGATTTTGGTTTACAGTCTACATTCGGAGTCACCTAGTGCAG,8100 fluorescence intensity (a.u.)

# A different layout for part of the listing above.
row | Sequence | binding signal
23 | AATCTATGGTCCAAACTATTTCACTCCCTTTTTTCTCTCACGGAGTCACCTAGTGCAG | 11000 fluorescence intensity (a.u.)
24 | CCACTAGATATGCGCGCCTTTGCAAACTTACCACCCAATCCGGAGTCACCTAGTGCAG | 9200 fluorescence intensity (a.u.)
